According to publication PMC9166816:
Results are given in words; binding and its absence hold for the method and conditions named. Binding seen in cells or lysates may run through a third protein. A yes stands for co-enrichment or nearness to the bait. Other partners may have been found. A no says only that the protein was not detected with the bait. Tags and fused reporters may be left off the sequences shown.

Biological target: T1, FLAG and HA-tagged RNF219 (FHA-RNF219), stably expressed in HeLa S3 cells (human) (UniProt Q5W0B1)
T1 sequence: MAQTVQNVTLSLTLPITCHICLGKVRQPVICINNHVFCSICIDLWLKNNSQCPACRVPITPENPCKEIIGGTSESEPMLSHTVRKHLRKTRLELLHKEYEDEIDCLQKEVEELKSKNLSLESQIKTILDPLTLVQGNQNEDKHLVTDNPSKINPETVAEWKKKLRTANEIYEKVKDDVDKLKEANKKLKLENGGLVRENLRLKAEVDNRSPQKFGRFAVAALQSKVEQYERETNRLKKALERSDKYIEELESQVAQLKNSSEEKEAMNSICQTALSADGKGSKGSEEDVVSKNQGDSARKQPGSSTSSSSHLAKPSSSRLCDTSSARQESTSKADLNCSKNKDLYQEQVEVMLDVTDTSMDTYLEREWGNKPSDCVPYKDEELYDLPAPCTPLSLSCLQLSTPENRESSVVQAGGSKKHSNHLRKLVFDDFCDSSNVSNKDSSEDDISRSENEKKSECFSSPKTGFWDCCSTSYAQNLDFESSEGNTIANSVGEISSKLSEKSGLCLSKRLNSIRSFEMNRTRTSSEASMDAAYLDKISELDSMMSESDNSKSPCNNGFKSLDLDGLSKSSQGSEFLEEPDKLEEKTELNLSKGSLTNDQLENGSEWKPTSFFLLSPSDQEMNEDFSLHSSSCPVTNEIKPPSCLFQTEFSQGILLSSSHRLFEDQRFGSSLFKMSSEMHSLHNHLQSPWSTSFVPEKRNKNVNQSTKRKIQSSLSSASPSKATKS
Assay: affinity purification with mass spectrometry; two-step FLAG and HA affinity chromatography from Dignam S100 cytoplasmic extracts of HeLa S3 cells stably expressing FHA-RNF219; bands of SDS-PAGE analysed by tandem mass spectrometry; non-transduced HeLa S3 as mock

binding: no binding
B1: CNOT4 (protein, UniProt O95628 1-575)
chain: MSRSPDAKEDPVECPLCMEPLEIDDINFFPCTCGYQICRFCWHRIRTDENGLCPACRKPYPEDPAVYKPLSQEELQRIKNEKKQKQNERKQKISENRKHLASVRVVQKNLVFVVGLSQRLADPEVLKRPEYFGKFGKIHKVVINNSTSYAGSQGPSASAYVTYIRSEDALRAIQCVNNVVVDGRTLKASLGTTKYCSYFLKNMQCPKPDCMYLHELGDEAASFTKEEMQAGKHQEYEQKLLQELYKLNPNFLQLSTGSVDKNKNKVTPLQRYDTPIDKPSDSLSIGNGDNSQQISNSDTPSPPPGLSKSNPVIPISSSNHSARSPFEGAVTESQSLFSDNFRHPNPIPSGLPPFPSSPQTSSDWPTAPEPQSLFTSETIPVSSSTDWQAAFGFGSSKQPEDDLGFDPFDVTRKALADLIEKELSVQDQPSLSPTSLQNSSSHTTTAKGPGSGFLHPAAATNANSLNSTFSVLPQRFPQFQQHRAVYNSFSFPGQAARYPWMAFPRNSIMHLNHTANPTSNSNFLDLNLPPQHNTGLGGIPVAGEEEVKVSTMPLSTSSHSLQQGQQPTSLHTTVA
